Data reported in article PMC5042403.
No constants are given. Whether binding was seen depends on the method and setting. Binding seen in cells or lysates may run through a third protein. Some entries that bind do so weakly or less than the wild type.

Amino acid sequences for entries named in this document (tags omitted).
UniProt Q96533: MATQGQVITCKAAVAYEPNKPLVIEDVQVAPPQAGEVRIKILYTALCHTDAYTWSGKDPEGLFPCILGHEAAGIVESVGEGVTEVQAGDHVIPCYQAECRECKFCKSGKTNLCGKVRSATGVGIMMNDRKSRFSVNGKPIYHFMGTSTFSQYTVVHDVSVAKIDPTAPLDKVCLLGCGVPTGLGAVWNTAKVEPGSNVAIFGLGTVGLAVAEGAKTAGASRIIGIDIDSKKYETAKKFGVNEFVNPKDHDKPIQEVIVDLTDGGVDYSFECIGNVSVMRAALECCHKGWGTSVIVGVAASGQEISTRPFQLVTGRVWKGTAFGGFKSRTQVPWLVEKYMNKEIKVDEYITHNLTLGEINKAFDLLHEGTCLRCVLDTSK

Key:
[1] = molecular target: GSNOR-YN (N-terminal half of YFP fused to S-nitrosoglutathione reductase) (Arabidopsis thaliana) (UniProt Q96533); assay: split reporter; BiFC; split-YFP fusions co-expressed transiently in 3-week-old tobacco leaves by Agrobacterium infiltration; YFP imaged 2 days after infiltration
[2] = molecular target: GSNOR-YC (C-terminal half of YFP fused to S-nitrosoglutathione reductase) (Arabidopsis thaliana) (UniProt Q96533); assay: as above

Row | Substance | binding [1] | binding [2]
1 | CaM4-YC (C-terminal half of YFP fused to AtCaM4) (from UniProt P0DH96 1-149) | binds | –
2 | CaM4-YN (N-terminal half of YFP fused to AtCaM4) (from UniProt P0DH96 1-149) | – | binds
